Experimental data as given in PMC4456726.
Results are given in words; binding and its absence hold for the method and conditions named. In cells and extracts the contact can be indirect. Some binding calls cover weakened binding; strength is not graded here.

Chains of the proteins cited; added tags and fusions are not shown. Residues count along the entry.
UniProt P45481, residues 586-665: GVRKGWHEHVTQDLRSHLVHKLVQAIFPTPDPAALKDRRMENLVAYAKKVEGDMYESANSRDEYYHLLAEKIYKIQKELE
UniProt Q01147, residues 87-146: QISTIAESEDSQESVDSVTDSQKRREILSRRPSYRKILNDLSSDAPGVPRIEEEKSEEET

Tests used:
[1] = target: nuclear localization signal attached N-terminal luciferase-KIX (NLS-lucN-KIX) (UniProt P45481); test: split reporter; split luciferase complementation in primary cortical culture (E17, DIV 3) of the transgenic mouse; L15 with 5 mM luciferin; before and 1 h after forskolin (10 μM)
[2] = target: nuclear localization signal attached N-terminal luciferase-KIX (NLS-lucN-KIX) (UniProt P45481); test: split reporter; split luciferase complementation in the cerebral cortex of awake transgenic mice; luciferin (0.25 M, 300 μl) i.p. 5 min before imaging, 5-min exposure, CCD camera; before and 1 h after imipramine (64 mg/kg), or before and after reserpine (0, 0.5, 1 mg/kg/day, 3 days)

binding [1]: binds
binding [2]: binds
Substance: nuclear localization signal attached KID-C-terminal luciferase (NLS-KID-lucC) (from UniProt Q01147 87-146) (domain or fragment)
